This passage reports binding results from PMC7906790.

Protein sequences, listed by entry. Tags and fused reporters are not part of them. Lines headed by an entry give the natural chain unless they say otherwise; changes in a name come on top.
UniProt P23321: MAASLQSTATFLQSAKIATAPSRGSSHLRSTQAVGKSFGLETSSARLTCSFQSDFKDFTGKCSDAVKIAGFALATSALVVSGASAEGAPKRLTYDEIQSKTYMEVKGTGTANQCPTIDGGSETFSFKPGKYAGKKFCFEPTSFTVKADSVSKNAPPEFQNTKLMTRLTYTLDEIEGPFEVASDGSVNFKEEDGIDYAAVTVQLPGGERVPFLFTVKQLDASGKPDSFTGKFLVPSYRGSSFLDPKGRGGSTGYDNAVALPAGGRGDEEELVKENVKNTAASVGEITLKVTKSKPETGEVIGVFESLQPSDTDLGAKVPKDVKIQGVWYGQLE

The target of experiment [1] is T1, HSP90C–YFP^C (Arabidopsis thaliana) (UniProt Q9SIF2).
T1 sequence: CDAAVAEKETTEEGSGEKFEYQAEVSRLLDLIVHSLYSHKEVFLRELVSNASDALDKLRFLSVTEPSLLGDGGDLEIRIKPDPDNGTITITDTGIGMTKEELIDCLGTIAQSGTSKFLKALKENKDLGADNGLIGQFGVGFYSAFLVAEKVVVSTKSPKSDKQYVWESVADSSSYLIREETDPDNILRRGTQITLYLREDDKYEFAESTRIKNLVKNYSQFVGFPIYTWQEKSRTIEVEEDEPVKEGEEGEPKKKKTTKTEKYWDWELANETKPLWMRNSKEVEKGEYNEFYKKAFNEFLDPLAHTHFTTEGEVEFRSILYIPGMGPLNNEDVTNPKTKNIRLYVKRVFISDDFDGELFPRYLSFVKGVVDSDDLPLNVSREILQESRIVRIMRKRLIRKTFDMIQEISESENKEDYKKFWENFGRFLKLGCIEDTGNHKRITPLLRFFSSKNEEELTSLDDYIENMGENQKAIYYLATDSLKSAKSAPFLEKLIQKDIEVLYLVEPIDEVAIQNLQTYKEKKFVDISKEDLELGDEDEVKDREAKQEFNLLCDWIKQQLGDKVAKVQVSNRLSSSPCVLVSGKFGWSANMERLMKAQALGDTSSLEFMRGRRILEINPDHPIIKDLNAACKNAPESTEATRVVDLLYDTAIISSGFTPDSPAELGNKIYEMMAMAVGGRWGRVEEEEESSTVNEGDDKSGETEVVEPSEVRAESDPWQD
The experiment can be described thus: split reporter; split YFP (nYFP/cYFP at the C-termini), transient co-expression in N. benthamiana leaf mesophyll chloroplasts, confocal microscopy 48 h after infiltration; also with 10 mM sodium azide or 30 uM geldanamycin.

Experiment [2] addresses T2, SecY1–YFP^C (Arabidopsis thaliana) (UniProt Q38885).
T2 sequence: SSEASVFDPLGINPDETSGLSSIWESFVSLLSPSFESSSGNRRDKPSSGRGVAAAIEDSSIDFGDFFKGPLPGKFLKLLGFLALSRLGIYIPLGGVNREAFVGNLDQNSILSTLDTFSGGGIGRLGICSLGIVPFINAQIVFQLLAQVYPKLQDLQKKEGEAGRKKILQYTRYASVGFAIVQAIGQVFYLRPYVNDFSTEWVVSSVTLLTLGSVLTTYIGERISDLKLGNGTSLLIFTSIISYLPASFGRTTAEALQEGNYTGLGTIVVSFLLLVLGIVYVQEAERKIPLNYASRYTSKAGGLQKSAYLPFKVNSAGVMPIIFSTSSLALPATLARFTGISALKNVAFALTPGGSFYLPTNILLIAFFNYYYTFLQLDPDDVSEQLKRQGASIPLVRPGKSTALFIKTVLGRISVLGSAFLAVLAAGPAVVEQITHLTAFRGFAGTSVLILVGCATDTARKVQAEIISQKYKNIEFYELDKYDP
Described as above.

For experiment [3], the target named is T3, SecY1–YFP^N (Myc tagged) (Arabidopsis thaliana) (UniProt Q38885).
T3 sequence: T2 sequence
Put plainly: co-IP; intact tobacco chloroplasts after co-infiltration, solubilised with an equal volume of buffer with 2% digitonin (100 mM Tris-HCl pH 7.5, 300 mM NaCl); anti-Myc antibody and protein A-agarose hold Myc-tagged SecY1–nYFP; immunoblot; wild-type leaves as control.

These are yes or no findings as the source states them, for the method shown. In cells and extracts the contact can be indirect. Binding calls can cover weak binding; strength is not graded here. Tags and fused reporters may be left off the sequences shown.

Turning to PsbO1–YFP^N (from UniProt P23321), the binding result in experiment [1] and in experiment [2] was “binds” throughout.
Take “endogenous tobacco HSP90C (N. benthamiana (endogenous in leaves))”: in experiment [3], the binding result is listed as “binds”.
